# The other results are listed elsewhere or left out. These are raw signals, not scaled to a control.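 Primary screen: polymyxin B was added at a level permeabilizing Salmonella outer membranes while sparing inner membranes. DMSO wells, both with and without polymyxin B, established maximum growth. Plate-to-plate variation meant each plate was ranked on its own, and the lowest-OD600 compounds were selected as hits.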
# System: Salmonella enterica serovar Typhimurium SL1344
# Assay: bacterial growth OD600 after 18 h with compound and polymyxin B; higher = more bacterial growth (less inhibition)
# Details: 50 µM, Mueller-Hinton broth
SMILES,bacterial growth OD600 (polymyxin B 1 µg/mL),bacterial growth OD600 (polymyxin B 0.75 µg/mL)
FC(F)(F)c1cccc(Cc2noc(CN3CCCC(OCc4cccnc4)C3)n2)c1 (stereo unspecified),0.75,–
Cc1c(C(C)NC(=O)c2ccccc2-c2ncc[nH]2)cnn1-c1ccccn1 (stereo unspecified),1.23,–
O=C1CC(CC(=O)N2CCCC2c2nccs2)(c2cccc(F)c2)C(=O)N1Cc1cccnc1 (stereo unspecified),–,0.958
O=C(CC1CC1)N1CCCC(CCc2c(F)cccc2F)C1 (stereo unspecified),–,0.48
COCc1c(C(=O)NCc2cccnc2)cnn1-c1ncc2c(n1)-c1ccccc1CCC2,–,0.745
CN(Cc1ccccc1)c1ncccc1CNC(=O)CN1CC(=O)NC1=O,0.886,–
COc1cccc(CN2CCN(C3CCCC3)C(CCO)C2)c1 (stereo unspecified),0.85,–
O=C(CSc1ccccc1)N1CCCC(N2CCN(c3cccc(Cl)c3)CC2)C1 (stereo unspecified),0.688,–
O=C(CN1Cc2ccccc2OC(c2ccccc2F)C1)NCC(c1ccncc1)N1CCOCC1 (stereo unspecified),–,0.646
COc1cccc(-c2cnnc(NC(C)CCn3cccn3)n2)c1 (stereo unspecified),–,0.659
CCC1CN(CCNC(=O)Cc2cccc(C)c2)Cc2cc(OC)ccc2O1 (stereo unspecified),–,0.758
COc1ccc(S(=O)(=O)NCC2CCCN(C(=O)CNC(C)=O)C2)cc1 (stereo unspecified),0.822,–
COc1cc(C(=O)N(Cc2cnn(C)c2)C(C)C)ccc1OC1CCN(C(C)=O)CC1,0.859,–
COc1ccc(C(CC(=O)N(C)Cc2ccon2)c2ccccc2)cc1 (stereo unspecified),0.664,–
CC(C)c1cc(C(=O)N2CCCC(Nc3ccc4c(c3)OCCO4)C2)on1 (stereo unspecified),0.94,–
CSc1ncccc1C(=O)N1CCC(C(Cc2ccccc2)N(C)C(=O)c2ccoc2C)CC1 (stereo unspecified),–,0.758
O=C(c1cccnc1)N1CCC(Oc2ccccc2C(=O)N2CCc3ccccc3C2)CC1,1.28,–
Cc1cc(C(=O)NCC2CCCN(S(=O)(=O)c3ccc(C)s3)C2)no1 (stereo unspecified),–,0.66
COc1ccc(-c2noc(CN3CCCC(C(=O)c4cccnc4)C3)n2)c(OC)c1OC (stereo unspecified),0.991,–
CC(NC1CCN(c2ccc(C(=O)N(C)C)cc2)CC1)c1ccc(Cl)cc1 (stereo unspecified),–,0.612
CCS(=O)(=O)c1ncc(CN2CCCC(C)C2)n1CCCc1ccccc1 (stereo unspecified),0.002,–

# Two of the compounds above, with bars between the fields.
SMILES | bacterial growth OD600 (polymyxin B 1 µg/mL) | bacterial growth OD600 (polymyxin B 0.75 µg/mL)
O=C(CSc1ccccc1)N1CCCC(N2CCN(c3cccc(Cl)c3)CC2)C1 (stereo unspecified) | 0.688 | –
COc1cccc(-c2cnnc(NC(C)CCn3cccn3)n2)c1 (stereo unspecified) | – | 0.659
